Measurements reported in PubChem BioAssay AID1224830 (NIAID, 2016)
This is a random part of about 18,000 reagents tested. Over the whole deposit, about 2,900 (16%) got an active call. 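Calls are made per well; low scores hint the gene aids the LPS response, high scores that it dampens it.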 Repeated entries: four replicate wells of each siRNA pool.

- Test: 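Genes whose knock-down alters the TNF-alpha reporter response to LPS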 (primary screen)
- Cell system: human THP-1 monocytic leukaemia cells, TNF dual-luciferase reporter clone, PMA-differentiated to macrophage-like cells
- Reagents: siRNA pool against human genes, 50 nM
- Time to read-out: LPS for 4 h, given about 3 days after siRNA transfection
- Challenge: bacterial LPS (TLR4 ligand), 10 ng/ml
- Detection: 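Ratio of firefly to renilla light, scaled to the plate median and expressed as a robust z-score per replicate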
- Scale: TNF reporter robust z-score: higher = stronger TNF reporter response to LPS
- Call rule: 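a well is active when its z-score exceeds 2.8 or falls below -1.5; control wells carry no call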

| target gene | TNF reporter robust z-score | Outcome |
| --- | --- | --- |
| KDELR2 | 0.21 | inactive |
| KDELR2 | 0.12 | inactive |
| KDELR2 | 0.02 | inactive |
| KDELR2 | -0.04 | inactive |
| ARPC2 | 0 | inactive |
| ARPC2 | 0.01 | inactive |
| ARPC2 | -0.19 | inactive |
| ARPC2 | 0.23 | inactive |
| CMTM4 | -0.13 | inactive |
| CMTM4 | 0.01 | inactive |
| CMTM4 | -0.24 | inactive |
| CMTM4 | -1.07 | inactive |
| HPDL | -0.08 | inactive |
| HPDL | -0.59 | inactive |
| HPDL | -0.43 | inactive |
| HPDL | -0.8 | inactive |
| HSFY2 | 0.98 | inactive |
| HSFY2 | 3.19 | active |
| HSFY2 | 3.97 | active |
| HSFY2 | 1.8 | inactive |
| CHGB | 0.19 | inactive |
| CHGB | 1.65 | inactive |
| CHGB | 0.35 | inactive |
| CHGB | 0.95 | inactive |
| TNRC6B | -0.95 | inactive |
| TNRC6B | -0.63 | inactive |
| TNRC6B | -0.3 | inactive |
| TNRC6B | 0.8 | inactive |
| LGI2 | -0.93 | inactive |
| LGI2 | -0.91 | inactive |
| LGI2 | -1.17 | inactive |
| LGI2 | -1.28 | inactive |
| CEP152 | -0.91 | inactive |
| CEP152 | -1.5 | inactive |
| CEP152 | -1.01 | inactive |
| CEP152 | -1.37 | inactive |
| BDH1 | 0.54 | inactive |
| BDH1 | 0.37 | inactive |
| BDH1 | 0.39 | inactive |
| BDH1 | 0.93 | inactive |
| YAE1 | 0.48 | inactive |
| YAE1 | 0.62 | inactive |
| YAE1 | 0.66 | inactive |
| YAE1 | 1.24 | inactive |
| GRB2 | 2.83 | active |
| GRB2 | 1.28 | inactive |
| GRB2 | -0.86 | inactive |
| GRB2 | -0.41 | inactive |
